Data published in patent CN115466329A.
No constants are given. Whether binding was seen depends on the method and setting. Some binding calls cover weakened binding; strength is not graded here.

Amino acid sequences for entries named in this document (tags omitted). Residues count along the entry.
UniProt Q15116, residues 25-167: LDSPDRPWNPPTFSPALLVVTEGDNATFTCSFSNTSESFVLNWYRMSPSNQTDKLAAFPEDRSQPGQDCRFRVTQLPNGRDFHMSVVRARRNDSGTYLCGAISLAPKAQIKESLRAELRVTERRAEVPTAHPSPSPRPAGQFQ

Target: PD-1 (ACRO) coated on the ELISA plate (UniProt Q15116)
Assay: ELISA, PD-1 coated at 1μg/ml, antibody at 10μg/ml

- binding: binds
B1: 抗PD-1鼠单抗PD-1-76-C2 (antibody, V domains shown)
VH: QIQLVQSGPELKKPGETVKISCKASGYTFTNYGMNWVKQAPGKGLKWMGWINTHTGEPTYADDFKGRFAFSLETSASTAYLQIKNLKNEDVATYFCTKEGEGIGFAYWGQGTLVTVSA
VL: DVLMTQTPLSLPVSLGDQASISCRSSQSIVYSNGKTYLEWYLQKPGQSPKLLIYKVSNRFSGVPDRFSGSGSGTDFTLKISRVEAEDLGVYYCFQGSHVPNTFGGGTKLEIKR
